Data reported in PMC4077741, “Miz-1 Activates Gene Expression via a Novel Consensus DNA Binding Motif”.

How the values were obtained:
[1] = target: T1, MBP-Miz-1-ZF (Homo sapiens) (UniProt Q13105); assay: EMSA; details: EMSA: ZBA (10 mM Tris pH 7.5, 90 mM KCl, 1 mM MgCl2, 90 uM ZnCl2, 5 mM DTT) with 100 ng/ul poly(dI-dC), 15 min, room temperature, recombinant protein, residues 269-793, protein details: N-terminal MBP
T1 sequence (Q13105 269-793, looked up): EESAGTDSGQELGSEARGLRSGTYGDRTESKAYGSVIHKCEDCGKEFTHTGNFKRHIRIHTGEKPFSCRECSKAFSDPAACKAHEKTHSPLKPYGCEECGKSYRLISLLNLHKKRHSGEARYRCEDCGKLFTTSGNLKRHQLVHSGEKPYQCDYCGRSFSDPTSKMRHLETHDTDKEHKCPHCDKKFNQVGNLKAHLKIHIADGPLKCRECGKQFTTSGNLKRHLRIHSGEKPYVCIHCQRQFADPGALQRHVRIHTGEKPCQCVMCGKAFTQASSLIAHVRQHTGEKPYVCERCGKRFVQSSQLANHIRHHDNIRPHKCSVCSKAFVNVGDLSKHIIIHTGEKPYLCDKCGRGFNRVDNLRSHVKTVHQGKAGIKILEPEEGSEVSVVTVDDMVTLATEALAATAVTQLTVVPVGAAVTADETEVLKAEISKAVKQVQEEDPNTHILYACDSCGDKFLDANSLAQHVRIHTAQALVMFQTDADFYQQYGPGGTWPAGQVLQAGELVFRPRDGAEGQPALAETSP

[2] = target: T2, Miz-1 untagged (Homo sapiens) (UniProt Q13105); assay: EMSA; details: lower affinity than P1; EMSA: ZBA (10 mM Tris pH 7.5, 90 mM KCl, 1 mM MgCl2, 90 uM ZnCl2, 5 mM DTT) with 100 ng/ul poly(dI-dC), 15 min, room temperature; protein translated in vitro
T2 sequence (looked up, limits assumed): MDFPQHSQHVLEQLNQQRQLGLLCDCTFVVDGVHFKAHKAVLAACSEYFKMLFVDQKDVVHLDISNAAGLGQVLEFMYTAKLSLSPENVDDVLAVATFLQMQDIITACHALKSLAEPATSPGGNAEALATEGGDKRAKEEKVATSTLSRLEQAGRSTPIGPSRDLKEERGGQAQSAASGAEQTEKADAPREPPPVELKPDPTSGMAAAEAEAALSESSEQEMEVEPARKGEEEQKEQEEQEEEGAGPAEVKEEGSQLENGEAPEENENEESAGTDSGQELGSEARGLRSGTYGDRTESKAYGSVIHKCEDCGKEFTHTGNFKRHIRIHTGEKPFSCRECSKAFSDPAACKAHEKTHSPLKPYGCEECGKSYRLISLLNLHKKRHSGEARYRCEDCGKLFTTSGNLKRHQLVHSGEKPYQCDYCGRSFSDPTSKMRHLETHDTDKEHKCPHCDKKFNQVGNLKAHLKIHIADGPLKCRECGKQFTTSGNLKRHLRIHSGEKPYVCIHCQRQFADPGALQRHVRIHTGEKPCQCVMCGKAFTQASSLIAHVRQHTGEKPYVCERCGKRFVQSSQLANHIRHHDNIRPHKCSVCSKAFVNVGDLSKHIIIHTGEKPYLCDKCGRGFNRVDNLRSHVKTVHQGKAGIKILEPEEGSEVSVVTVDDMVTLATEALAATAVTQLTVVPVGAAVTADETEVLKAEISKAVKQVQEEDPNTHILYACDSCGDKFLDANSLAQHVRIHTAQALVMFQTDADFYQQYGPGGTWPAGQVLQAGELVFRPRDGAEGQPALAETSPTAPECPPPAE

[3] = target: T1, MBP-Miz-1-ZF (Homo sapiens); assay: competition with a labelled probe; details: EMSA: ZBA (10 mM Tris pH 7.5, 90 mM KCl, 1 mM MgCl2, 90 uM ZnCl2, 5 mM DTT) with 100 ng/ul poly(dI-dC), 15 min, room temperature, recombinant protein, residues 269-793, protein details: N-terminal MBP
[4] = target: MBP (unfused) (E. coli) (UniProt P0AEX9); assay: EMSA; details: tag-only control; EMSA: ZBA (10 mM Tris pH 7.5, 90 mM KCl, 1 mM MgCl2, 90 uM ZnCl2, 5 mM DTT) with 100 ng/ul poly(dI-dC), 15 min, room temperature; recombinant protein
[5] = system: Cux1; assay: EMSA; details: EMSA: ZBA (10 mM Tris pH 7.5, 90 mM KCl, 1 mM MgCl2, 90 uM ZnCl2, 5 mM DTT) with 100 ng/ul poly(dI-dC), 15 min, room temperature; protein in an extract; label: 5' IRDye 700
[6] = target: T3, MBP-Miz-1-FL (Homo sapiens) (UniProt Q13105); assay: competition with a labelled probe; details: EMSA: ZBA (10 mM Tris pH 7.5, 90 mM KCl, 1 mM MgCl2, 90 uM ZnCl2, 5 mM DTT) with 100 ng/ul poly(dI-dC), 15 min, room temperature, recombinant protein, protein details: N-terminal MBP, label: none (unlabeled competitor)
T3 sequence (looked up, limits assumed): T2 sequence (looked up, limits assumed)

“AGGGTTGGTATCGATTATCGAGTT (double strand) [P2]”: binds [1]; binds more weakly [2]; binds more weakly ([3]; 200-fold unlabeled P2 vs labeled P1, less able to compete than other combinations). “AGGGTTGGTATCGATTATCGAGTT (double strand) [P2]”: binds ([3]; 200-fold unlabeled P2 vs labeled P2).

“GAATTATCGGTAATCCATCGAGGT (double strand) [P1]”: no binding [4]; binds [1]; binds ([3]; 200-fold unlabeled P1 vs labeled P2).

“CAAAAGTGCGGCTGCGTGGTGCAC (double strand) [CP]”: no binding [5]; no binding ([1]; label: 5' IRDye 700).

“GAATTATCCGTAATGCATCGAGGT (double strand) [P1m2]”: binds more weakly ([6]; unlabeled P1m2 vs labeled P1 or P2); binds more weakly ([3]; unlabeled P1m2 vs labeled P2, label: none (unlabeled competitor)).

“AGGGTTGGTATCAATTATCTAGTT (double strand) [P2m1]”: binds more weakly ([6]; unlabeled P2m1 vs labeled P1 or P2); binds more weakly ([3]; unlabeled P2m1 vs labeled P1 or P2, label: none (unlabeled competitor)).

“GAATTAGGAGTAAACCATCGAGGT (double strand) [P1m1]”: binds more weakly ([6]; unlabeled P1m1 vs labeled P1 or P2); binds more weakly ([3]; unlabeled P1m1 vs labeled P2, label: none (unlabeled competitor)).

“ACCCTTATATCGGTAATCGGTAAG (double strand) [P1m3]”: binds ([3]; unlabeled P1m3 vs labeled P1 or P2, range over both proteins and probes, label: none (unlabeled competitor)).

“AGGGTTGGTATGGATTAACGAGTT (double strand) [P2m2]”: binds more weakly ([6]; unlabeled P2m2 vs labeled P1 or P2); binds more weakly ([3]; unlabeled P2m2 vs labeled P1 or P2, label: none (unlabeled competitor)).

For part of these data: No signal at the amounts used counts as a negative. For part of these data: Construct, isoform or probe ends are uncertain for at least one entry. For part of these data: A weaker result is weaker than the reference pair of the same experiment. For part of these data: Tags and fusion partners may be left off the protein sequences shown. For part of these data: Where cells or extracts were used, other partners may take part.
